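A cell-based FRET test of anthrax lethal toxin entry, tracked through the 460 nm emission signal; the cell line is not named here.
Each compound was tested as a concentration series from about 0.0005 to 40 µM.
The number is the fitted AC50 of the 460 nm signal alone; lower values mean a more potent effect. A falling signal goes with compounds filed as inhibitors or cytotoxic, a rising one with activators or fluorescent compounds (inferred from the filed classes).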

Values are in nM.
Common to all entries: measured here: 460 nm channel.
This is a side read-out of the assay, for part of the compounds, not drawn at random.
Potencies fitted to partial, single-point or poorly fitting curves are rough.
The first word of each remark tells which way the curve ran; it can be opposite to the aim of the assay.

| # | Compound | AC50 (nM) | remark |
|---|---|---|---|
| 1 | `c1ccc2sc(C3(N4CCCCC4)CCCCC3)cc2c1` | 31622 | falling, single point |
| 2 | `C[C@]1(C(=O)NCCCNc2ncc(C(F)(F)F)cc2Cl)C=C[C@@H](Cc2ccccc2)N1C(=O)c1ccccc1` | 15848 | falling, single point |
| 3 | `CN(C)c1ncc2nc(-c3cccs3)c(=O)n(C3CC3)c2n1` | 10000 | rising, partial curve |
| 4 | `CCc1cccc2c(=O)c(C(=O)N3CCCCCC3)c[nH]c12` | 12589 | rising, single point |
| 5 | `CC1=C(C(=O)Nc2ccc(Cl)cc2)C(c2cccs2)n2nnnc2N1` (centres undefined) | 19952 | falling, single point |
| 6 | `Oc1cc(NCc2cccnc2)ccc1-c1nc2ccccc2o1` | 3981 | rising, single point |
| 7 | `Cc1nnc2n1N=CC=C(C(C)(C)C)S2` | 2512 | rising, single point |
| 8 | `COc1ccc(-n2c(Cn3c(=O)sc4ccccc43)nnc2SCC(=O)N2CCOCC2)cc1` | 10000 | rising, partial curve |
| 9 | `c1ccc(N2CCN(CCCOc3ccc4c(c3)OCO4)CC2)cc1` | 12589 | falling, partial curve, poor fit |
| 10 | `CCCCCOC(=O)C1[C@H]2C(=O)N(Cc3cccs3)C[C@]23C=C[C@H]1O3` (some centres undefined) | 316.2 | falling, partial curve |
| 11 | `O=C(NCCC1=CCCCC1)C1CCN(S(=O)(=O)c2ccc(-n3cnnn3)cc2)CC1` | 12589 | falling, partial curve |
| 12 | `O=C(c1ccco1)N1CCC2(CC1)CCN(c1ccccc1)CC2` | 3162 | rising, full curve |
| 13 | `COCCCn1c(CCC(=O)O)ccc1-c1cccs1` | 31622 | rising, single point |
| 14 | `Cc1cccc(C)c1OCc1nnc2c3cnn(C)c3ncn12` | 316.2 | falling, single point |
| 15 | `CN1CCc2c(sc3c2C(=O)NC(c2cccc(OC(=O)c4cccs4)c2)N3)C1` (centres undefined) | 25118 | rising, single point |
| 16 | `CCNc1ncc2nc(CCc3ccccc3)c(=O)n(CCC#N)c2n1` | 6310 | rising, partial curve |
| 17 | `CN(C)c1ncc2nc(-c3ccccc3)c(=O)n(CCc3ccccc3)c2n1` | 2512 | rising, full curve |
| 18 | `O=C(CSc1nc(O)cc(=O)[nH]1)N1CCCc2ccccc21` | 12589 | rising, single point |
| 19 | `CC(C)C1Nc2ccc(S(N)(=O)=O)cc2C2C=CCC21` (centres undefined) | 25118 | falling, single point |
| 20 | `O=C(c1cc(-c2cccc(O)c2)on1)N1CCc2ccccc2C1` | 12589 | falling, partial curve |
| 21 | `Cc1nc(NC(=O)c2ccccc2)sc1-c1csc(NCc2ccco2)n1` | 12589 | falling, partial curve |
| 22 | `COC(=O)[C@@]1(Cc2ccc(F)cc2)[C@H]2c3cc(C(=O)N4CCCC4)n(Cc4ccc(C(F)(F)F)nc4)c3C[C@H]2CN1C(=O)c1ccccc1` | 10000 | rising, partial curve |
| 23 | `O=S(=O)(Nc1ccc2c(c1)nc1n2CCOC1)c1ccccc1` | 25118 | rising, single point |
| 24 | `CCCc1cc(=O)[nH]c(SCC(=O)N2CCN(c3ccccc3)CC2)n1` | 15848 | rising, single point |
| 25 | `CN(C)CC(C(=O)c1ccccc1)c1ccccc1` (centres undefined) | 10000 | falling, partial curve |
| 26 | `COc1ccc(S(=O)(=O)NC(CC(=O)NCCc2ccc(OC)c(OC)c2)c2ccco2)cc1` (centres undefined) | 25118 | rising, single point |
| 27 | `CCOc1cc(C)c(Cl)cc1S(=O)(=O)n1nnc2ccccc21` | 12589 | falling, partial curve |
| 28 | `C=CCn1c(Cc2cccs2)nnc1SCC(=O)Nc1ccc(C(=O)OCC)cc1` | 5012 | rising, single point |
| 29 | `Cc1cc(C(=O)NCc2ccc(S(N)(=O)=O)cc2)c(C)o1` | 3981 | falling, single point |
| 30 | `N#Cc1c(-c2ccc3c(c2)OCO3)csc1N` | 3162 | falling, partial curve |
| 31 | `CCOC(=O)c1cc2c(=O)n3cccc(C)c3nc2n(Cc2ccco2)c1=NC(=O)c1cccnc1` | 25.12 | rising, full curve, poor fit |
| 32 | `CCOP(=S)(OCC)Oc1nc(Cl)c(Cl)cc1Cl` | 5012 | falling, full curve |
| 33 | `O=C(CCc1ccc(S(=O)(=O)N2CCOCC2)cc1)OCc1nc2ccccc2s1` | 5012 | rising, single point |
| 34 | `CCOC(=O)c1c(NC(=O)c2ccc(Br)o2)sc(C)c1CC` | 12589 | falling, partial curve |
| 35 | `COc1cc(CN2CCN(S(=O)(=O)c3ccc(NC(C)=O)cc3)CC2)cc(OC)c1O` | 398.1 | rising, full curve |
| 36 | `CCCS(=O)(=O)C(=C1Nc2ccccc2N1)S(=O)(=O)CCC` | 158.5 | rising, partial curve |
| 37 | `C=C1[C@@H](O)C2C=CC[C@H](C)C(=O)[C@@](C)(O)C=C[C@@H](OC(C)=O)[C@@]23C(=O)N[C@H](Cc2ccccc2)[C@@H]3[C@@H]1C` (some centres undefined) | 25.12 | falling, full curve |
| 38 | `CC12CCC(C(=O)NCC3CCCO3)(OC1=O)C2(C)C` (centres undefined) | 3981 | falling, single point |
| 39 | `Cc1noc(C)c1-c1nc(Nc2ccccc2)c2ccccc2n1` | 31622 | falling, single point |
| 40 | `Cc1cc(=O)n(-c2ccc3ccccc3n2)[nH]1` | 3.981 | falling, full curve, poor fit |
| 41 | `C=C(C)COc1ccc(-c2n[nH]c(C)c2-c2ccccc2)c(O)c1` | 31622 | falling, partial curve |
| 42 | `Clc1ccc2c(NCCNc3ccnc4cc(Cl)ccc34)ccnc2c1` | 1000 | falling, single point |
| 43 | `O=C(CSc1nnc(COc2ccc(Cl)cc2)o1)N1CCN(c2ccccc2)CC1` | 15848 | falling, single point |
| 44 | `CC1CC(C)(C)Nc2ccc(OC(=O)c3ccco3)cc21` (centres undefined) | 3981 | falling, full curve |
| 45 | `OCCN1CCN(c2nc(-c3ccccc3)c3cc(Cl)ccc3n2)CC1` | 10000 | rising, partial curve |
| 46 | `COc1cccc(-c2cncnc2NCc2cnc(C)cn2)c1` | 31622 | falling, single point |
| 47 | `Cn1c(=O)c(CCc2ccccc2)nc2cnc(N3CCOCC3)nc21` | 15848 | rising, single point |
| 48 | `COc1cc(CNC(=O)CCCC/C=C\C(C)C)ccc1O` | 12589 | falling, partial curve |
| 49 | `O=S(=O)(c1ccccc1)N1CCC2(CC1)CN(Cc1ccccc1)C2` | 10000 | falling, single point |
| 50 | `COc1cc(NC(=O)c2cc3sccc3n2C)cc(OC)c1` | 31622 | falling, single point |
| 51 | `COc1cc(C2CC(=O)N3CN(c4ccccc4C)CSC3=C2C#N)cc(OC)c1OC` (centres undefined) | 3981 | falling, partial curve |
| 52 | `C=C(C)COc1ccc(-c2n[nH]c(C)c2-c2ccccc2OC)c(O)c1` | 2512 | falling, full curve |
| 53 | `O=C(c1ccccc1)[C@H]1[C@H](c2ccccc2[N+](=O)[O-])N1C1CCCCC1` (some centres undefined) | 316.2 | falling, single point |
| 54 | `COC(=O)c1ccc(C2C(C#N)=C(N)Oc3cc(C)n(C)c(=O)c32)cc1` (centres undefined) | 10000 | rising, single point |
| 55 | `CC(C)NC(=O)N1CCC2(CC1)CCN(C(=O)c1cnccn1)CC2` | 6310 | falling, full curve |
| 56 | `CCOC(=O)N1CCN(C(=O)c2ccc3c(c2)ncn3C2CCCC2)CC1` | 31622 | rising, single point |
| 57 | `CN(C)c1ncc2nc(-c3ccccc3)c(=O)n(C3CC3)c2n1` | 10000 | rising, partial curve |
| 58 | `O=C1N[C@@]2(CN3CCC2CC3)C(=O)N1CN(Cc1ccccc1)c1ccccc1` | 5012 | rising, single point |
| 59 | `CCNc1ncc2nc(-c3ccc(OC)cc3)c(=O)n(Cc3ccc(F)cc3)c2n1` | 501.2 | rising, full curve |
| 60 | `Clc1ccc2c(c1)N=C(N1CCNCC1)c1ccccc1N2` | 31622 | falling, single point |
| 61 | `Clc1cccc(-c2nn3c(Cn4cnc5ccccc54)nnc3s2)c1` | 5012 | rising, full curve |
| 62 | `Cc1cccc(Nc2nc(-c3ccccn3)cs2)n1` | 10000 | falling, single point |

Once more, the final 6:

Compound,AC50 (nM),remark
CN(C)c1ncc2nc(-c3ccccc3)c(=O)n(C3CC3)c2n1,10000,"rising, partial curve"
O=C1N[C@@]2(CN3CCC2CC3)C(=O)N1CN(Cc1ccccc1)c1ccccc1,5012,"rising, single point"
CCNc1ncc2nc(-c3ccc(OC)cc3)c(=O)n(Cc3ccc(F)cc3)c2n1,501.2,"rising, full curve"
Clc1ccc2c(c1)N=C(N1CCNCC1)c1ccccc1N2,31622,"falling, single point"
Clc1cccc(-c2nn3c(Cn4cnc5ccccc54)nnc3s2)c1,5012,"rising, full curve"
Cc1cccc(Nc2nc(-c3ccccn3)cs2)n1,10000,"falling, single point"

Source: PubChem BioAssay AID912 (NCATS, 2007).